Our source for the binding values is patent US12590147.

Chains of the proteins cited; added tags and fusions are not shown. Lines headed by an entry give the natural chain unless they say otherwise; changes in a name come on top.
UniProt Q8NER1: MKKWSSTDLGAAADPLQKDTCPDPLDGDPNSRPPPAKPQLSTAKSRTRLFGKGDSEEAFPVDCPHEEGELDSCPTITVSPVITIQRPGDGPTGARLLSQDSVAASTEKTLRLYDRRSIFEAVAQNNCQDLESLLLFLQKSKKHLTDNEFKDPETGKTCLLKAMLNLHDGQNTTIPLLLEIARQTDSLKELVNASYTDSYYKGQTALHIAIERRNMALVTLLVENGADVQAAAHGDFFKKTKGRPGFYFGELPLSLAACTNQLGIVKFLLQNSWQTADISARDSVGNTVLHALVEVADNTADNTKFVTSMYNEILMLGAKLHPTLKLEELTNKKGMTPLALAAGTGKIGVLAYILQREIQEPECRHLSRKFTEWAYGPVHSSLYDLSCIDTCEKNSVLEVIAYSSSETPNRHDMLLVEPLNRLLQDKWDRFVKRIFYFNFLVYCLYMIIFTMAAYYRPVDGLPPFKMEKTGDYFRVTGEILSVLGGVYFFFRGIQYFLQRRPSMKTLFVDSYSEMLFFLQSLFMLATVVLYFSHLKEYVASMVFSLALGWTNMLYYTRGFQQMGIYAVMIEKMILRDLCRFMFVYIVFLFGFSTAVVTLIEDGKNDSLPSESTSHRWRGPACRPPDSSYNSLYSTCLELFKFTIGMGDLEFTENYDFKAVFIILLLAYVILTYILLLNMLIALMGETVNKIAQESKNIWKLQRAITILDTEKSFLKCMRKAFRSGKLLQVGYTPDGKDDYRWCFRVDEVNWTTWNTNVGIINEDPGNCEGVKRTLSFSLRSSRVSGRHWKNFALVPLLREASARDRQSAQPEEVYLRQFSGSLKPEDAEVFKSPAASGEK
UniProt P02769: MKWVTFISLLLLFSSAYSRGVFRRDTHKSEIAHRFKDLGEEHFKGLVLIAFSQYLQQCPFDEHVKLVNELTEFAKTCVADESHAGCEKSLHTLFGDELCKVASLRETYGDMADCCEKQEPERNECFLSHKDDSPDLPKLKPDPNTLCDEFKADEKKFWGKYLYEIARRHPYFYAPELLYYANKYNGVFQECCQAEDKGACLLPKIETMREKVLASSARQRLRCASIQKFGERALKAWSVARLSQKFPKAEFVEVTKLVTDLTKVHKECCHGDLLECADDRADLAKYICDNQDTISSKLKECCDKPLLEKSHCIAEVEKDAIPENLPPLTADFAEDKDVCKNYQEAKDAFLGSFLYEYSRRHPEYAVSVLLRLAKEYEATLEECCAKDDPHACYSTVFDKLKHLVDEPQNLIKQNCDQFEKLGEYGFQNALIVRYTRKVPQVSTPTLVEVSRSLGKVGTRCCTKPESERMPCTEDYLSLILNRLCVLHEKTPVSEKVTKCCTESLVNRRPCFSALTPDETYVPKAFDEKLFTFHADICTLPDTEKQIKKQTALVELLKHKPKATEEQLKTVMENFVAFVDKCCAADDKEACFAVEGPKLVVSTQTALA

Assay [1] has as its target human TRPV1 (transient receptor potential vanilloid type 1) (human) (UniProt Q8NER1). The assay is described as follows: FACS on CHO TRPV1 cells, purified antibody.
The next assay concerns the target OTV3-OVA (human). The assay is described as follows: monoclonal phage ELISA.
The target of a further assay is OTV4-OVA (human). The assay is described as follows: monoclonal phage ELISA. (An ELISA detects its analyte on a solid surface through an enzyme-linked reagent.)
The target of the next assay is OTV4-BSA (human; bovine) (UniProt P02769). The assay is described as follows: monoclonal phage ELISA.
A further assay concerns the target OTV3-BSA (human; bovine) (UniProt P02769). The assay is described as follows: monoclonal phage ELISA.
Assay [2] concerns the target human TRPV1 (transient receptor potential vanilloid type 1) (human) (UniProt Q8NER1). The assay is described as follows: FACS on CHO TRPV1 cells, supernatant of the parental hybridoma.

No constants are given. Whether binding was seen depends on the method and setting. Some entries that bind do so weakly or less than the wild type.

B1: 17E11-1 (antibody, IgG1, V domains shown)
VH: EVQLLQSVAELVRPGASVKLSCTASGFNIKNTFIHWLKQRPEQGLEWIGKIDPANGNIRCAPKFQGKATITADTSSNTAYLQLSSLTSGDTAIYYCGRGTMLVGHFYWYFDVWGTGTTVTVSS
VL: DIVMSQSPSSLAVSVGEKITMSCKSSQSLLYSSNQKNYLAWYQQKPGQSPKLLIYWASTRESGVPDRFSGSGSGTDFTLTISSVKTEDLAIFYCQQYYYYPPTFGAGTKLELR
Consider B1, for which the binding entry in assay [1] is recorded as “binds”.

B2: R4P1-C1 (phage Fab clone) (Fab, V domains shown)
VH: QVQLQQSGPGLVKPSQTLSLTCAISGDSVSSNSAAWNWIRQSPSRGLEWLGRTYYRSKWYNDYAVSVKSRITINPDTSKNQFSLQLNSVTPEDTAVYYCARDDYDPVGMYAFDIWGQGTLVTVSS
VL: LPVLTQPPSASGTPGQRVTISCSGSSSNIGSNTVNWYQQLPGTAPKLLIYRNTQRPSGVPDRFSGSKSGTSASLAISGLQSEDEADYYCEAWDDSMRGAAFGGGTQLTVL
On to B2, for which the binding entry with OTV3-OVA (human), with OTV4-OVA (human), with OTV4-BSA (human; bovine) and with OTV3-BSA (human; bovine) was “binds” throughout.

B3: 32C8-1 (antibody, V domains shown)
VH: DVQLQESGPGLVKPSQSLSLTCTVTDYSFTSDFAWNWIRQFPGNKLEWMGFITYSDHTNYNPSLISRISITRDTSKNQFFLQLNSVTPEDTATYYCARSTTYFDYWGQGTTLTVSS
VL: DVLMTQTPLSLPVSLGDQASISCRSSQTILHSDGNTYLEWYLQKPGQSPKLLIYKVSNRFSGVPDRFSGSGSGTDFTLKISRVEAEDLGVYYCFQGSHVPPTFGGGTKLEIK
As to B3, the binding result in assay [2] is “binds”.

B4: 44E8-1 (antibody, V domains shown)
VH: DVQLQESGPGLVRPSQSLSLTCTVTGYSITSDYAWNWIRQFPGNKLEWMGFITYSGNTNYNPSLKSRISITRDTSKNQFFLQLNSVTTEETATYYCASSGNYFDYWGQGTTLTVSS
VL: DVLMTQTPLSLPVSLGDQASISCRSSQSIVHSDGNTYLEWYLQKPGQPPKLLIYKVSNRFSGVPDRFSGSGSGTDFTLKISRVEAEDLGFYYCFQGSHVPPTFGGGTKLEIK
In the case of B4, the binding entry in assay [2] is on record as “binds”.

B5: 46B7-1 (antibody, V domains shown)
VH: DVQLQESGPGLVKPSQSLSLTCTVTDYSLTSDYAWNWIRQFPGNKLEWMGYITYSGYTNYNPSLKSRVSITRDTSKTQFFLQLNSVTTEDTATYYCARSTAYFDYWGQGTTLTVSS
VL: DVLMTQTPLSLPVSLGDQASISCRSSQSVIHSDGNTYLEWYLQKPGQSPKLLIYKVSNRFSGVPDRFSGSGSGTDFTLKISRVEAEDLGVYYCFQGSHVPPTFGGGTKLEIK
Consider B5, for which, in assay [2], the binding result is “binds”.

B6: 34C11-1 (antibody, V domains shown)
VH: DVQLQESGPGLVKPSQSLSLTCTVTDYSFTSDFAWNWIRQFPGNKLEWMGFITYSDHTNYNPSLISRISITRDTSKNQFFLLLNSVTPEDTATYYCARSTTYFDYWGQGTTLTVSS
VL: DVLMTQTPLSLPVSLGDQASISCRSSQSILHSDGNTYLEWYLQKPGQSPKLLIYKVSNRFSGVPDRFSGSGSGTDFTLKISRVETEDLGVYYCFQGSHVPPTFGGGTKLEIK
Take B6: the binding entry in assay [2] is listed as “binds”.

B7: 43D6-1 (antibody, V domains shown)
VH: DVQLQESGPGLVKPSQSLSLTCTVTDYSLTSDYAWNWIRQFPGNKLEWMGYITYSGYTNYNPSLKSRVSITRDTSKTQFFLQLNSVTTEDTATYYCARSTAYFDYWGQGTTLTVSS
VL: DVLMTQTPLSLPVSLGDQASISCRSSQSVIHSDGNTYLEWYLQKPGQSPKLLIYKVSNRFSGVPDRFSGSGSGTDFTLKISRVEAEDLGVYYCFQGSHVPPTFGGGTKLEIK
As for B7, the binding result in assay [2] is “binds”.

B8: 41B5-1 (antibody, V domains shown)
VH: DVQLQESGPGLVKPSQSLSLTCTVTDYSLTSDYAWNWIRQFPGNKLEWMGYITYSGYTNFNPSLRSRISITRDTSKTQFFLQLNSVTAEDTATYYCVRSTTYFDYWGQGTTLTVSS
VL: DVLMTQTPLSLPVSLGDQASISCRSSQSIVHSDGNTYLEWYLQKPGQSPKLLIYKVSNRFSGVPDRFSGSGSGTDFTLKINRVEAEDLGIYYCFQGSHVPPTFGGGTKLEIK
For the molecule B8, in assay [2], the binding entry is reported as “binds”.

B9: 40B10-1 (antibody, V domains shown)
VH: DVQLQESGPGLVKPSQSLSLTCTVTDYSFTSDFAWNWIRQFPGNKLEWMGFITYSDHTNYNPSLISRISITRDTSKNQFFLLLNSVTPEDTATYYCARSTTYFDYWGQGTTLTVSS
VL: DVLMTQTPLSLPVSLGDQASISCRSSQSILHSDGNTYLEWYLQKPGQSPKLLIYKVSNRFSGVPDRFSGSGSGTDFTLKISRVETEDLGVYYCFQGSHVPPTFGGGTKLEIK
For the molecule B9, the binding entry in assay [2] is “binds”.

B10: 33C9-1 (antibody, V domains shown)
VH: DVQLQESGPGLVKPSQSLSLTCTVTDYSLTSDYAWNWIRQFPGNKLEWMGYITYSGYTNYNPSLKSRISITRDTSKTQFFLQLSSVTTEDTATYYCARSTTFFDYWGQGTTLTVSS
VL: DVLMTQTPLSLPVSLGDQASISCRSSQSIVHSDGNTYLEWYLQKPGQSPKLLIYKVSNRFSGVPDRFSGSGSGTDFTLKISRLEDEDLGVYYCFQGSHVPPTFGGGTKLEIK
As for B10, in assay [2], the binding result is listed as “binds”.

B11: 46D9-1 (antibody, V domains shown)
VH: DVQLQESGPGLVKPSQSLSLTCTVTDYSFTSDFAWNWIRQFPGNKLEWMGFITYSDHTNYNPSLISRISITRDTSKNQFFLQLNSVTPEDTATYYCARSTTYFDYWGQGTTLTVSS
VL: DVLMTQTPLSLPVSLGDQASISCRSSQSILHSDGNTYLEWYMQKPGQSPKLLIYKVSNRFSGVPDRFSGSGSGTDFTLKISRVEAEDLGVYYCFQGSHVPPTFGGGTKLEIK
With B11, the binding result in assay [2] is “binds”.
